For one substance, binding results are on record in publication PMC12643063, “Mechanistic basis for inhibition of the extended‐spectrum β‐lactamase GES‐1 by enmetazobactam and tazobactam” (Febs Letters, 2025).

Sequences of proteins named here, by UniProt entry; tags and fusion partners are left off. Residues count along the entry.
UniProt Q9KJY7, residues 18-287: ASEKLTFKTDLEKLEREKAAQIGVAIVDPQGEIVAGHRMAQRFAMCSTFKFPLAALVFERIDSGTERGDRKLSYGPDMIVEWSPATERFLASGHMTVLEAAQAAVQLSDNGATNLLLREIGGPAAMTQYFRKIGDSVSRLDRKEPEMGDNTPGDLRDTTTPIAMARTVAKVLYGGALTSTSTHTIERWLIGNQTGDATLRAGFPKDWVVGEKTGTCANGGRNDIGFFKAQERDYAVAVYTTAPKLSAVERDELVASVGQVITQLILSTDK

Results are given in words; binding and its absence hold for the method and conditions named.

The experiment has as its target GES-1 (Guiana extended-spectrum β-lactamase 1) (Klebsiella pneumoniae, UniProt Q9KJY7). Kind of experiment: SEC; size exclusion chromatography of purified GES-1; conditions not told for this statement (the purification used HiLoad 16/600 Superdex 75 pg in 20 mM Tris pH 8.0, 150 mM NaCl); both purified.

In the case of “GES-1 (Guiana extended-spectrum β-lactamase 1) (from UniProt Q9KJY7 18-287) (enzyme)”, the binding result is given as “no binding”.
